Results published in the supplement of paper PMC3334620.
The full ranking holds about 33,000 sequences; the median of “E-score (-0.5 to 0.5)” is about -0.0059, and the highest 2% start at about 0.26. The list shows a part of the results.

biological target: T1, Cin5 (UniProt P40917); assay: PBM E-score (8-mer binding enrichment) (E-score (-0.5 to 0.5)); higher = stronger / more preferred TF binding; conditions: protein concentration: 100 nM; construct: GST-full length
T1 sequence: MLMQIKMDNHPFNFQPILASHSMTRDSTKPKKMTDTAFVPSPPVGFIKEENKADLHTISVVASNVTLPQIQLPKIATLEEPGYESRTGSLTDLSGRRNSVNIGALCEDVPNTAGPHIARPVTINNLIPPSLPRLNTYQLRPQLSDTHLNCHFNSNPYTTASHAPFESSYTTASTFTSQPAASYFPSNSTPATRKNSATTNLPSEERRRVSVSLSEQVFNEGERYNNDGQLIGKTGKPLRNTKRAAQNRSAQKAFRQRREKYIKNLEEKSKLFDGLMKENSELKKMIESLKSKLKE
Summary of the method: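 Universal all-10-mer Agilent arrays, double-stranded by primer extension on fresh or once-stripped slides, were probed with about 100-200 nM GST-tagged yeast transcription factors made by PURExpress. Fluorescent anti-GST detected bound protein, and masliner normalised the scans. E-scores from the Universal PBM Analysis Suite were given to each ungapped eight-base word pooled with its reverse complement.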

Sequence	PBM E-score
CCATGTAA	0.171
GGCTGTCA	-0.21
ACAGGGAG	-0.221
AGTGCAGG	0.0389
CCGAACTC	-0.0235
AGCCGTTG	-0.0672
AGGGGGAG	-0.399
ACTGAAGA	-0.0176
ATCTGAAT	0.0915
CCGTTGCC	-0.259
CCCGGCGC	-0.236
CTCACAGC	-0.0256
ACCAATTG	-0.0132
ATCTGCGG	0.114
CACCGAAA	0.0875
AAATCCTA	0.103
ACGCCTCC	-0.214
ATCCCCAG	-0.00316
AGAACCGG	-0.0383
ACCCGACG	-0.0936
CATAGGAG	0.0535
ACTAACCA	0.0193
GCGCCTAA	-0.0308
AGAGATTA	0.175
CGGCAGCC	-0.0672

Sequence	PBM E-score
AATCTTAC	0.25
AGTCCATA	-0.0502
ACTCGGCT	-0.0112
GATCCGAC	-0.172
CATGGTGG	-0.149
CGTATTCC	0.148
GCAGACCC	-0.202
CTTTCCAA	-0.0214
AAGCACAT	0.206
AGACGTCA	-0.00622
AACTCGGA	0.0515
CACGAGCC	-0.193
AAGTTTGA	0.107
AGCTTGCA	0.11
ACGTCCGA	-0.133
AGTCTTAC	0.0876
AAGATGTC	-0.0313
AATCGTGT	0.129
AACGCACG	0.0844
GAATCTGA	-0.0334
TCACACAA	0.0832
ACAATTTA	0.185
GGCAGCAA	-0.00946
AATCCCGG	0.0516
GGCCGGCC	-0.163

Sequence	PBM E-score
ATGCGACA	0.0796
ACACCCTC	-0.0884
GCGAACGA	0.042
CTTCTGCA	-0.032
CTCCAGGC	-0.175
CTTGCGGC	-0.0724
ACCCCGTG	0.0026
CCGCTGGA	-0.0541
CGTAATAC	0.257
ATTATTCG	0.288
CGAGCGAG	0.188
GTAAGGAA	0.028
GTAGCATA	-0.0137
TTAAAAAA	0.0101
CACACTAC	0.00364
AATTTAAC	0.179
CATGTGCC	-0.0579
CCGTATCC	-0.112
GTCCCGTA	-0.206
ATCCACGG	0.0541
CCCATGGC	-0.142
GTCAAACA	-0.113
AATTTGCA	0.081
GCGTAACA	0.0788
AGTTTGTG	-0.0154

Sequence	PBM E-score
CTCATGAA	0.0624
ATAAACAA	0.257
AGGGATAT	-0.0496
CAGGGGCA	-0.0356
CTCCTTCA	-0.264
AAGGATTA	0.159
GTACATTA	0.135
AGGTTGAC	-0.0896
ATCAGACA	0.0704
AACTTGCG	-0.0652
CTAGTTAC	0.00557
AGCAACCG	-0.0611
CATCAGGG	0.0814
ACCCTCCA	-0.136
AACGGGCT	-0.23
GGTGATTA	0.213
AATCGGCC	0.0309
CCGATCCA	0.0442
GAGTCGCA	-0.218
CAGGTGAG	-0.121
GGCAATGA	-0.0311
AAAGTTTC	0.0422
CAAGTACA	0.0428
CACGCTGG	-0.116
CTGACTTC	0.00213

In a second layout: entries from further up.
Sequence | PBM E-score
CACACTAC | 0.00364
AATTTAAC | 0.179
CCGTATCC | -0.112
GTCCCGTA | -0.206
ATCCACGG | 0.0541
CCCATGGC | -0.142
GTCAAACA | -0.113
AATTTGCA | 0.081
GCGTAACA | 0.0788
AGTTTGTG | -0.0154
CTCATGAA | 0.0624
ATAAACAA | 0.257
AGGGATAT | -0.0496
CAGGGGCA | -0.0356
CTCCTTCA | -0.264
AAGGATTA | 0.159
GTACATTA | 0.135
ATCAGACA | 0.0704
AACTTGCG | -0.0652
CTAGTTAC | 0.00557
AGCAACCG | -0.0611
CATCAGGG | 0.0814
ACCCTCCA | -0.136
AACGGGCT | -0.23
GGTGATTA | 0.213
AATCGGCC | 0.0309
CCGATCCA | 0.0442
CAGGTGAG | -0.121
GGCAATGA | -0.0311
AAAGTTTC | 0.0422
CAAGTACA | 0.0428
CACGCTGG | -0.116
CTGACTTC | 0.00213

(cont.)

Sequence	PBM E-score
GGCCCCAC	-0.183
AAACCTGT	0.0662
ACATATTC	0.241
CAGACGGA	-0.0358
ACTAGCAT	0.0848
CGCATACC	0.126
AGGCGTAA	0.0228
AAGGCATG	-0.156
CCAACGTC	-0.147
CCTTCTCC	-0.251
CTCAATTA	0.143
CGACACGA	0.0696
AACGAAGC	-0.00547
ACCTGCAT	0.0415
CTAATAAG	0.0511
AGGCAGTC	-0.145
GGTCCGCA	-0.0684
ATCCTCAT	-0.024
TCCCAAGA	-0.0379
GTAATGCA	-1e-05
GTGATGAA	0.0186
GACCGGCA	-0.214
ACCTACAC	-0.109
CCAGAGTC	-0.0257
GTAACGCA	0.0946

Sequence	PBM E-score
ATTCAGTA	0.17
ACACGGGT	-0.032
CCAGCTAA	-0.0794
ATGTCTTA	0.109
CGAACGGA	0.00699
CACATGAC	-0.0762
AATAATGT	0.273
AAAAGCTG	-0.148
ACAAACAT	0.139
ATAGTGAA	0.138
CCCGAGCA	-0.113
CGGACAAC	0.135
GAGTACAA	0.126
CATACCCG	-0.0196
GACATGGC	0.0245
GGAATCAA	0.0945
ACACGCCC	-0.148
CCAAGTGC	-0.168
GACCCGGA	-0.305
AGAACACG	0.0977
AACGCGTA	0.0133
TGCTGGAA	-0.0131
GGCCGAGA	0.0879
ACGCCAAC	-0.179
ACCTTGCC	-0.0657

Sequence	PBM E-score
GTTACTGA	-0.0293
GGCGTTGA	0.0231
CAACACAG	-0.0269
CGGTTGAG	0.016
GAGTCGCC	-0.216
GGTACTGA	-0.154
ACTATTCC	0.0567
ATGTGCGG	0.0798
CGATTTAG	0.182
GGCACTAC	-0.205
AAGTCGGT	-0.125
GTTCGTTA	0.0785
GCGCTAAA	0.0631
GTCTGGGA	-0.247
AAATAGAA	-0.0117
CCCTTGGC	-0.24
CGAGTAAA	0.0542
AAATATTC	0.183
GGGTAACC	-0.296
AATCGTAT	0.185
CTAGGCTA	-0.263
AGCGGCAC	-0.129
